ClpP1P2: 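ClpP1P2, Mycobacterium tuberculosis (UniProt P9WPC5 and UniProt P9WPC3). Protease assay of ClpP1P2, read by the AMC dye that it sets free. Compounds at 50 µM. Higher reads as stronger inhibition, judged from the few compounds that gave an IC50. Most other retested compounds had strongly negative values. About 69,000 compounds were tested under these conditions; 0.015% (about 10) showed 50% or more at least once.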
MtTrpRS: 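Enzyme assay of tryptophanyl-tRNA synthetase; the read-out is not stated. Target: Tryptophan-tRNA ligase, Mycobacterium tuberculosis (UniProt P9WFT3). Compounds at 10 µM. Higher most likely means stronger inhibition; the record gives no direction and few retests gave an IC50. About 65,000 compounds were tested under these conditions; 0.098% (about 64) showed 50% or more at least once.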

Chains of the proteins cited; added tags and fusions are not shown.
UniProt P9WPC5, whole entry: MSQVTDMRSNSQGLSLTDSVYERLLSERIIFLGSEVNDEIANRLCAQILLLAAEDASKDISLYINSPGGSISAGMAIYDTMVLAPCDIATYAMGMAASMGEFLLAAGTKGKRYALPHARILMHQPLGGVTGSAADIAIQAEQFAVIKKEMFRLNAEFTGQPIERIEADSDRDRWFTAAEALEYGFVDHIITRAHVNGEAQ
UniProt P9WPC3, whole entry partner: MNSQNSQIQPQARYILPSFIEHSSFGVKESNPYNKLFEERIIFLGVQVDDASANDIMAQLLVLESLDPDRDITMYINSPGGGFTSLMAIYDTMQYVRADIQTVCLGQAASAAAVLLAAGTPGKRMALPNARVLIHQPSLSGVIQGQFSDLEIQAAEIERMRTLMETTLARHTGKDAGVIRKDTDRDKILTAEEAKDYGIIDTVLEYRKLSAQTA
UniProt P9WFT3, whole entry: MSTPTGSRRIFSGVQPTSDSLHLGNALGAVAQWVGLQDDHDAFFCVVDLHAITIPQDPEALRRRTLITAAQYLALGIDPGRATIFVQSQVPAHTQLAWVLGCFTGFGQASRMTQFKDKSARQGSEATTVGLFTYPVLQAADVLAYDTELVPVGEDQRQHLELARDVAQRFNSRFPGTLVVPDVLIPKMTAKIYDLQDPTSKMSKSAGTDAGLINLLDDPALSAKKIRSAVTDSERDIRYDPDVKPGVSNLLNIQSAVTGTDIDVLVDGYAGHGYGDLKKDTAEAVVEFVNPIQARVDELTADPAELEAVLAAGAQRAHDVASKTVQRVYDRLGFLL

The filed quantity is “Percent Effect” (%). The record does not define 0% and 100%; most values in the screen are far below 50% and negative numbers occur (in some assays of this library far below -100). This is an unselected part of the compounds tested. A dash means the value is not listed here; it may have been measured.

SMILES	ClpP1P2	MtTrpRS
CC(C)C(C(=O)N1CCN(c2nccs2)CC1)n1cncn1 (stereo not shown)	-9.754	-9.386
Cn1c(C2CC2)nc2cc(NC(=O)C3CC=CC3)ccc21	3.795	-2.571
Cc1nnc(N2CCCC3(CN(Cc4cccnc4)CCO3)C2)o1 (stereo not shown)	-20.91	0
Cc1ccnc(CNC(=O)C2CC(=O)N(CCN(C)C)C2)c1 (stereo not shown)	-13.61	1.4
C[C@H]1CC[C@H](C(=O)N2CCC(n3cc(C4(O)CCCC4)nn3)CC2)CC1	11.08	-1.961
O=C(NCC1CC1)C1=NOC2(CCN(Cc3ccc4c(c3)OCO4)C2)C1 (stereo not shown)	3.101	-1.364
CCCc1nc(CNC2(c3nccs3)CCCC2)cs1	22.45	-2.583
O=C(C(CNCc1ccncc1)c1ccccc1)N1CCOCC1 (stereo not shown)	2.712	-2.237
Cc1ccc(N2CCCC(NCc3ccc(C)s3)C2)nn1 (stereo not shown)	21.2	-3.549
CC(C)(C)NS(=O)(=O)c1ccccc1CNCc1ccccc1	2.766	-1.754
COC(=O)C(c1cc(F)ccc1F)N(C)C(=O)c1cccnc1O (stereo not shown)	7.252	-3.021
Cc1cccc(C(=O)N2CCN(c3ccccc3F)CC2)n1	4.763	-1.751
Cn1cc(C(=O)NCc2ccc(N3CCNC(=O)C3)c(F)c2)cn1	-1.77	-4.777
CNCC(=O)N1CCCC1c1n[nH]cc1-c1ccccc1F (stereo not shown)	-8.493	-1.015
O=C1N(Cc2ccccc2F)CCCC12CCN(C1CCSCC1)C2 (stereo not shown)	-21.49	-1.243
Cc1nc(-c2ccc(CNS(=O)(=O)N(C)C)cc2)ccc1C(N)=O	-16.05	-0.3524
Cc1nc(C)n(CC2CCCN(CC(=O)Nc3cccnc3)C2)n1 (stereo not shown)	-14.88	1.146
Cc1ccc(C(F)(F)F)cc1NCC(=O)Nc1c(C)nn(C)c1C	-2.248	-0.7407
Cc1noc(C)c1CN1C[C@@H](C(=O)O)[C@H](C(C)C)C1	1.995	-0.3027
OC1CCN(Cc2ccnc(-c3cccnc3)n2)CC1	-5.549	-
Cc1cc(CNC(=O)NC(C)(CO)C2CC2)c(C)s1 (stereo not shown)	-8.815	2.25
CC(C)=CCN1C[C@H]2CC[C@@H]1CN(C(=O)c1ccc3c(c1)OCO3)C2	-5.814	-3.039
CN1C(=O)CC[C@@H]2[C@H]1CCN2S(=O)(=O)Cc1ccccc1	12.09	-4.354
CN1CCCC2(CCN(S(=O)(=O)c3c(Cl)nc4sccn34)C2)C1=O (stereo not shown)	-11.27	-0.3303
CSc1ccc(NC(=O)Cn2cc(N)cn2)cc1	4.818	-0.4082
CC(C)NC(=O)c1cccc(NC(=O)CCCc2nc(C(C)C)no2)c1	9.81	-4.139
CC(C)c1nc(CCNC(=O)NCc2ccnc(N(C)C)c2)cs1	6.306	-1.462
COCC1CN(Cc2cccnc2)Cc2nnn(CC3CC3)c21 (stereo not shown)	-15.78	-2.811
O=C1CC2(CCCNC2)C(=O)N1Cc1cccc(F)c1 (stereo not shown)	1.417	-4.651
O=C1NCCCCC1NC(=O)N1CCCc2ccccc21 (stereo not shown)	0.6418	1.232
O=C(CN1CCC(c2cccc(F)c2)C1)NCC(F)(F)F (stereo not shown)	21.61	-0.7862
Cc1noc(C)c1NC(=O)Cn1cc(Br)ccc1=O	-6.007	-4.175
Cc1[nH]ncc1C(=O)N1CCCC(n2cncn2)C1 (stereo not shown)	-0.3123	-2.242
CCc1nc(CCNC(=O)Nc2cccc(C(=O)NC)c2C)cs1	4.121	4.996
CC(=O)N1CCC2(CC1)CC(NS(C)(=O)=O)c1ccccc1O2 (stereo not shown)	-1.383	-0.2593
O=C(NCCCNc1ccc(C(F)(F)F)cn1)c1ccc2c(c1)OCO2	-25.78	-4.576
Cc1cnn(C2CN(CC(O)COCc3ccc4c(c3)OCO4)C2)c1 (stereo not shown)	-4.643	-3.762
CCC(=O)N1CCCCC1c1nc(O)c2c(n1)CN(C(=O)C1CC1)CC2 (stereo not shown)	-10.62	-0.1302
CCc1nc(C)c(-c2nccn2CC2CCCCO2)[nH]1 (stereo not shown)	-9.648	-3.465
COc1nc(C)c(C(=O)N2CCN(c3ncccc3C)CC2)s1	-8.004	-3.307
Clc1ccccc1Cn1cc(CNC2CCc3ncnn3C2)cn1 (stereo not shown)	-6.924	-4.032
Cc1ccc(OCCCC(=O)NC(C)c2nnc3n2CCC3)cc1 (stereo not shown)	-5.623	3.249
COc1cccc(C(=O)NCCCN2CCc3ccccc3C2)c1OC	-8.088	3.97
Cc1cccc2c1OCCC2NCc1c(C)nn(C)c1N(C)C (stereo not shown)	33.08	-4.088
Cc1ccc(NC(=O)C2CSCN2C(=O)c2cnsn2)c(C)c1 (stereo not shown)	-36.97	5.08
O=C1c2cnc(N3CCOCC3)nc2CN1C1CCS(=O)(=O)C1 (stereo not shown)	-8.668	0.2867
COCCNC(=O)C(C)n1cc(Br)cn1 (stereo not shown)	8.861	-1.74
Cn1cc(S(=O)(=O)NCC2CCN(C(=O)Oc3ccccc3)CC2)cn1	-14.48	0.3943
CCNc1ncc(C(=O)NC(CCN(C)C)c2ccccc2)cn1 (stereo not shown)	-5.687	1.754
COc1ccc(CN2CCn3c(CO)nnc3C2)cc1CN1CCCC1	-6.086	-1.565
C[C@@H](O)CNc1c(NCc2ccco2)c(=O)c1=O	-14.29	3.479
COCc1cc(NCCc2ccccn2)n2nccc2n1	9.662	-1.496
c1ccc(-n2ncc(CN3CCCC3Cn3cccn3)n2)cc1 (stereo not shown)	-3.832	2.861
Fc1cccnc1O[C@H]1CN(Cc2ccoc2)[C@@H]2CCCO[C@H]12	5.168	-2.905
COCC1CC2(CCN(CC3CC3)CC2)CN1Cc1csc(C)n1 (stereo not shown)	17.03	-2.468
O=C(NC1CCCN(c2ncccn2)C1)c1ccoc1 (stereo not shown)	8.463	-1.589
CSCc1cc(F)ccc1CNCc1cccnc1	-8.984	-3.168
CC(C)(NC(=O)Nc1cnn(CC2CCCO2)c1)c1nccs1 (stereo not shown)	-5.463	-2.414
O=C(O)C1CN(c2cncc(Cc3ccccc3)n2)C1	-479.4	-4.423
Cn1nc2c(cc1=O)CN(Cc1nnc(-c3ccc(F)cc3)o1)CC2	-11.36	-1.411
CCc1ccc(C2CC(=O)Nc3cc(OC)c(NS(C)(=O)=O)cc32)o1 (stereo not shown)	-22.24	3.613
N#Cc1cccc(CS(=O)(=O)NC(Cc2ccccc2)C(N)=O)c1 (stereo not shown)	-4.211	3.389
CC(C)c1nc(S(=O)(=O)N(C)c2ccc(F)cc2)c[nH]1	-7.267	-2.784
Cc1cc(C2CCCN2Cc2nc3c(cnn3C)c(=O)[nH]2)on1 (stereo not shown)	-9.6	-7.497
CCSCCNC(=O)C(c1cccc(C)c1)N(C)C (stereo not shown)	1.722	-0.8514
COC(=O)c1ccc(N2CCN(C(=O)c3ccco3)C(C)C2)cc1 (stereo not shown)	-5.487	-9.976
CN(c1cccnn1)[C@@H]1CC[C@@H]2CN(Cc3ccccc3C(=O)O)C[C@@H]21	-0.3576	-6.596
OCCN1CC2(CCN(c3ccccc3)C2)C1	12.3	-0.5489
O=C(Cc1ccccc1)N1CCN(Cc2noc(C3CC3)n2)CC1	9.188	1.657
Cc1ccc(N2CCN(C(=O)CN3C[C@@H]4CC[C@H]3C4)CC2=O)cc1	12.27	13.94
O=C(NCc1ccco1)[C@@H]1CC[C@@H]2[C@@H](CCN2Cc2ccc(F)cc2)O1	16.64	6.185
CNc1cc(C2CCCN2C(=O)c2ccc(=O)[nH]n2)ccn1 (stereo not shown)	-7.457	-2.264
Cc1cnn(CC2CN(CC(=O)Nc3ccncc3)CCO2)c1 (stereo not shown)	0.09853	0.2556
CCc1cc(NCc2cc(CC(C)C)on2)n2nccc2n1	-3.402	3.494
COc1cccc(OCCCc2cncc(C(N)=O)c2)c1	-12.11	0.5947
CCc1ccc2nc(C)cc(C(=O)NC3CCNC3=O)c2c1 (stereo not shown)	1.534	0.5757
Fc1ccc(-c2nc(CNCCn3cccn3)cs2)cc1	-45.94	-13.12
c1cnnc(N2CCCC2CNCc2cccs2)c1 (stereo not shown)	-10.77	-0.7382
CCC(=O)NCC(=O)NC(C)c1sc(-c2ccccc2F)nc1C (stereo not shown)	2.918	3.406
CCOCC1CN(CC2CC2)Cc2nn(C)cc21 (stereo not shown)	2.961	2.827

For reference, 4 entries once more:

- O=C(O)C1CN(c2cncc(Cc3ccccc3)n2)C1 | ClpP1P2: -479.4%; MtTrpRS: -4.423%
- O=C1N(Cc2ccccc2F)CCCC12CCN(C1CCSCC1)C2 (stereo not shown) | ClpP1P2: -21.49%; MtTrpRS: -1.243%
- Fc1ccc(-c2nc(CNCCn3cccn3)cs2)cc1 | ClpP1P2: -45.94%; MtTrpRS: -13.12%
- Cc1ccc(N2CCCC(NCc3ccc(C)s3)C2)nn1 (stereo not shown) | ClpP1P2: 21.2%; MtTrpRS: -3.549%

From ChEMBL document CHEMBL3988442, “University of Dundee, Small-Polar-MMV Screening Library” (2021).